From patent US20190380957A1, “Protein Hydrogels For Treatment Of Neovascular Disease” (New Jersey Institute of Technology, priority 2018, published 2019)
Entries after “also recorded” stand apart in the source; their conditions may differ. At least one peptide structure holds a part that was inferred or is arguable (an end, a ring closure or a residue).

How the values were obtained:
[1] = system: human umbilical vein endothelial cells (HUVECs); test: Tube formation assay; assay type: cell-based
Description: To assay the anti-angiogenic effect of the self-assembled peptide on endothelial cells, tube formation assays were performed for a range of peptide concentrations. This assay captures the propensity of human ECs or HUVECs to form capillary-like tubules. The process is sensitive to the presence of anti-angiogenic compounds. HUVECs were seeded along with varying concentrations of SL-Kr5 solution on a basement membrane extract matrix to stimulate the formation of capillary tubules. The effects of the peptide on the HUVECs were characterized by measuring the extent of tube formation in terms of total length of tubules formed, number of segments, number of branches, number of junctions, number of nodes, and […] (FIGS. 8A-8F, FIGS. 9A-9D). Media was used supplemented with sucrose as the negative control and another supplemented with suramin (a known anti-angiogenic compound) as the positive control for the inhibition of tube formation by different concentrations (8 μM, 80 μM, 800 μM) of SL-Kr5. […] Rat dorsal subcutaneous implantation was used to study the in vivo physiological response towards SL-Kr5. 200 μL SC implants were injected and retrieved at prescribed time points (3 days and 7 days) for histological assessment. […] Although 200 μL was utilized in this example, it is contemplated that an administered dosage of SL-Kr5 to patients in an amount of about 5 μL-1,000 μL may be used and preferably about 5 μL-200 μL. It is further contemplated that an administered concentration of SL-Kr5 about 0.2 μM-20,000 μM may be used and preferably about 8 μM-800 μM.
Tube Formation Assay: HUVECs (Lonza) were cultured in T75 flasks using an Endothelial Cell Growth Medium BulletKit (Lonza). A Cultrex In Vitro Angiogenesis Assay Kit was used to measure tube formation. All steps were performed according to the manufacturer's instructions, which are briefly described as follows. 50 μL of basement membrane extract was added to each well of a 96-well plate and incubated at 37° C. for 30 to 60 min. Confluent HUVECs were stained with 2 μM calcein AM for 30 min at 37° C. and seeded on the basement membrane extract in the 96-well plate at 3,000 cells/well. Three target conditions (800 μM SL-Kr5, 80 μM SL-Kr5, and 8 μM SL-Kr5; n=6) and two controls (media with sucrose and media with suramin; n=6) were tested. The negative control was supplemented with 298 mM sucrose to match the corresponding highest quantity added to the test conditions, and the positive control contained 1.8 mM suramin. The 96-well plate was then incubated at 37° C. for 4 to 6 hours before imaging on a Nikon Instruments Eclipse Ti-S inverted fluorescence microscope. Tube length was quantified using NIH ImageJ software.

[2] = system: Female Wistar rats; test: In vivo subcutaneous implantation, histology; set-up: species or system rat
[3] = Rheology of the peptide hydrogel (strain sweep, shear recovery); assay type: physicochemical
[4] = increasing concentrations 8-800 μM

Q: With “Ac-KSLSLSLSLSLSLKGPRKLYDY-NH2 [SL-Kr5, K-(SL)6-K-G-PRKLYDY]” as the substance, how does the EC tube formation ([1]; 8 μM, 80 μM, 800 μM SL-Kr5) read?
A: inhibited; also recorded: dose-dependent inhibitory effect

Q: And the “inhibitory efficacy versus positive control” value ([1]; highest concentration of SL-Kr5)?
A: comparable to the tested positive control

Q: And the “number of tube branches” value [1, 4]?
A: decreased with increasing concentrations

Q: What about the “number of tube junctions” value [1, 4] of the same substance?
A: decreased with increasing concentrations

Q: And the “number of tube nodes” value [1, 4]?
A: decreased with increasing concentrations

Q: What about the “number of tube segments” value [1, 4] of the same substance?
A: decreased with increasing concentrations

Q: And the “infiltration of host cells into the periphery of the scaffold” value ([2]; 200 μL SC implant)?
A: limited infiltration of host cells

Q: And the “neovasculature / angiogenesis in the implant” value ([2]; 200 μL SC implant)?
A: no obvious neovasculature; also recorded: no angiogenesis or neurogenesis

Q: And the “scaffold degradation compared to other SAPHs” value ([2]; 200 μL SC implant)?
A: significantly slower scaffold degradation

Q: And the “ECM deposition surrounding the implant” value ([2]; 200 μL SC implant, 3 days)?
A: very limited ECM deposition

Q: And the “ECM deposition surrounding the implant” value ([2]; 200 μL SC implant, 7 days, periphery)?
A: substantial deposition of collagen

Q: And the “cellular infiltration in the core of the hydrogel” value ([2]; 200 μL SC implant, day 3 and 7)?
A: minimal cellular infiltration; also recorded: especially limited infiltration

Q: And the “cellular infiltration compared to other SAPHs” value ([2]; 7 days, compared with K2(SL)6K2 and SLanc)?
A: much lower cellular infiltration; also recorded: less cellular infiltration

Q: What about the “time to regain viscoelastic properties” value ([3]; after repeated strain cycles 1% and 100%) of the same substance?
A: ≤ 10 s

Q: What about the “time to recover storage modulus after strain removal” value ([3]; repeated strain cycles 1% and 100%) of the same substance?
A: ≤ 10 s

Q: And the shear-thinning ([3]; strain sweep 1% to 100%)?
A: liquefied at high shear strain
